Assay results taken from the supplement of paper PMC11006884.
The list shows a part of the results, in another mix than the full data.

By UniProt entry, the sequences of proteins in these tests, tags left out. Where a name states a change or a piece, a line headed by the entry shows the natural chain unless it says otherwise.
UniProt P62330: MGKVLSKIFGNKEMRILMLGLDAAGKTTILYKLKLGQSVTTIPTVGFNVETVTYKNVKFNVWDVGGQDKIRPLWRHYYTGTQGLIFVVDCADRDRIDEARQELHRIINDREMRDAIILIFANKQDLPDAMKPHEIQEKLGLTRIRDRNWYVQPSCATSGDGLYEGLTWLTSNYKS
UniProt Q00796: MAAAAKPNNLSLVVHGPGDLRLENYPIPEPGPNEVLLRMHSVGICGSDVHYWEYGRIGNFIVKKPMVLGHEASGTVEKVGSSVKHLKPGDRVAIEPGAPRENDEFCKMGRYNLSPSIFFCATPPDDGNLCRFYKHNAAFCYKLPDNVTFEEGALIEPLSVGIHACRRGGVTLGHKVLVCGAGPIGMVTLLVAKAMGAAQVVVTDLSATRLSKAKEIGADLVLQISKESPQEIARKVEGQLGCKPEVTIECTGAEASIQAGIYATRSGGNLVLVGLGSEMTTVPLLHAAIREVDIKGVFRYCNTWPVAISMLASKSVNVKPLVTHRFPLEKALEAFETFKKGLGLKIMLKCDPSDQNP
UniProt Q02040: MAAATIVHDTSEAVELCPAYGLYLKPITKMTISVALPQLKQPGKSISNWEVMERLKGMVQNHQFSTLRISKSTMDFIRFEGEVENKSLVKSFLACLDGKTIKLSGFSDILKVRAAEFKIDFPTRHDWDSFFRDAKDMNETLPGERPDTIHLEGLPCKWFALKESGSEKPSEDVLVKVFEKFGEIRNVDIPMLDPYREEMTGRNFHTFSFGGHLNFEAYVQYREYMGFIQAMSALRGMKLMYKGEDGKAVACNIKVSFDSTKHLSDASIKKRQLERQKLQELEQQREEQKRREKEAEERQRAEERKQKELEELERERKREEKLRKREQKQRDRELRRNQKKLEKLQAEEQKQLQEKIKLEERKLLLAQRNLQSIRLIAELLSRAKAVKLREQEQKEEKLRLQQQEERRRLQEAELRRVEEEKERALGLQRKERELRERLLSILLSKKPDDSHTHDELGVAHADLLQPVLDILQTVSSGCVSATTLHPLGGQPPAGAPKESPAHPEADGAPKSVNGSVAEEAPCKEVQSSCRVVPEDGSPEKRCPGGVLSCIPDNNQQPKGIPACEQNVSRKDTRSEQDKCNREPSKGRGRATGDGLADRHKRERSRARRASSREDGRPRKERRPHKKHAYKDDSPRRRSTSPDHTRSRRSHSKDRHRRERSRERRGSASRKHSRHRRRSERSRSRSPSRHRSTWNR
UniProt Q02241: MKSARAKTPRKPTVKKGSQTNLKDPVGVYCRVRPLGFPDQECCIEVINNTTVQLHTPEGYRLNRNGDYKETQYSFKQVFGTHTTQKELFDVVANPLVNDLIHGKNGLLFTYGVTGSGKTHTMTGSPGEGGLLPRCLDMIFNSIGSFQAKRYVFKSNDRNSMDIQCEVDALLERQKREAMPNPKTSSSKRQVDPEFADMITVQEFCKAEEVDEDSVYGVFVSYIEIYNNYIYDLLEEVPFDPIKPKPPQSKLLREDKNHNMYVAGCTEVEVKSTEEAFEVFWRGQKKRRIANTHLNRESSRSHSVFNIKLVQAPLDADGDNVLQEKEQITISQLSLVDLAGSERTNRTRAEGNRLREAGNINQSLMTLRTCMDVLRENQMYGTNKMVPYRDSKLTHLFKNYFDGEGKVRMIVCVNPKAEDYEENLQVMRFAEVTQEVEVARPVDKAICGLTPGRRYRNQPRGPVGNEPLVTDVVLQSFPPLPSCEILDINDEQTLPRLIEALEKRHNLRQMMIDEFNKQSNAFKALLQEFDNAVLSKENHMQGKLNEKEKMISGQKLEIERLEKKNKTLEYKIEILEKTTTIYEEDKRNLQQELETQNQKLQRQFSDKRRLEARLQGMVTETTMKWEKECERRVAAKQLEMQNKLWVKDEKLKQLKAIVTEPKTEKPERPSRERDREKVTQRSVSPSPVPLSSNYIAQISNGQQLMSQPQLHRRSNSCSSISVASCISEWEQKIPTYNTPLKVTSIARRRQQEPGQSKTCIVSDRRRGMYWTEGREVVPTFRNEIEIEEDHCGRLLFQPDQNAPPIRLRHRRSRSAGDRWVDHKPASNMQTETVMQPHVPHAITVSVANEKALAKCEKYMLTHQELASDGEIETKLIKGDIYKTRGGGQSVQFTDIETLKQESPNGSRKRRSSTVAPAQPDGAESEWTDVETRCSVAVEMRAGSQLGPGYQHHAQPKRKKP
UniProt Q01826: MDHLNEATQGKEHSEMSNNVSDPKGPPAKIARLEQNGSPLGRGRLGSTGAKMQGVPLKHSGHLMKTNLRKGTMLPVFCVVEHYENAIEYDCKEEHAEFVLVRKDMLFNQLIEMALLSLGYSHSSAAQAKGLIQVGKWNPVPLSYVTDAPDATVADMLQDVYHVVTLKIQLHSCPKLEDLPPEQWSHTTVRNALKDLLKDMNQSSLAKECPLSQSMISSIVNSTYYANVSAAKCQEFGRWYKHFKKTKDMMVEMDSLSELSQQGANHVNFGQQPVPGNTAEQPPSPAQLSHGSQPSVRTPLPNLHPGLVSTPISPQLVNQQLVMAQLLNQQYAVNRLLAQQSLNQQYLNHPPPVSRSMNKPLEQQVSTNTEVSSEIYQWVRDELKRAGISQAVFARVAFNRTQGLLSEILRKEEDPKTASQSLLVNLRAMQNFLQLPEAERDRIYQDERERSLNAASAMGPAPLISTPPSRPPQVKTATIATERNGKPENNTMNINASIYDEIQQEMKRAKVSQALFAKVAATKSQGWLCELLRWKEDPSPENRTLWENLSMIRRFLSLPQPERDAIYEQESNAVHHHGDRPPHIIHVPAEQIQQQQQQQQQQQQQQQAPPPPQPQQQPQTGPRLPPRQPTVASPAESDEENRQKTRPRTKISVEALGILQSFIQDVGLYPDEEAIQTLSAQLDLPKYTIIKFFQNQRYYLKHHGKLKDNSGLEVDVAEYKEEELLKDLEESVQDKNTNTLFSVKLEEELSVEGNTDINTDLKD
UniProt P62306, whole entry, looked up: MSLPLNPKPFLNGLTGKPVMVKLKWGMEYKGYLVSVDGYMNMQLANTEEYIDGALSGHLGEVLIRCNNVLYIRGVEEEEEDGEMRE
UniProt Q01581: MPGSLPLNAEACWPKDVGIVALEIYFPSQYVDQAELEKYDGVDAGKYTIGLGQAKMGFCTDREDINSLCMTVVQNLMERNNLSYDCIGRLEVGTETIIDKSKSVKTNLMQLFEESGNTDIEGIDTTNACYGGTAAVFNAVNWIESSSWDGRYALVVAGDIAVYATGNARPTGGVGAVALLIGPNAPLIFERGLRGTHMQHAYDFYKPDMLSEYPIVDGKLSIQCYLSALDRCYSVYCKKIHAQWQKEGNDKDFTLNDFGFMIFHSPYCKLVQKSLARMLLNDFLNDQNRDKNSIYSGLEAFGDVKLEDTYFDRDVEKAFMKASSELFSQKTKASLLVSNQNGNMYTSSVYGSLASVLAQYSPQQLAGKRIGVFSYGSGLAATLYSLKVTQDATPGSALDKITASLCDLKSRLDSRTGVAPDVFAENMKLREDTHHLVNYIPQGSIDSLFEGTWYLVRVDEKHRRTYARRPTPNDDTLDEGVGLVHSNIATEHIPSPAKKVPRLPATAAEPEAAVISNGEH

compound: COC(=O)C#Cc1ccccc1 [methyl 3-phenylpropiolate]; experiment: log2 ratio of iodoacetamide-alkyne labeling of the cysteine site, DMSO over compound (competition); higher = stronger covalent engagement of the cysteine by the compound, active = 1 or more; settings: 500 µM; treatment time 1 h; system: HEK293T cell lysate
Method in brief: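 HEK293T lysate (2 mg/mL) was incubated with electrophile (500 µM) or vehicle for 1 h at ambient temperature and then with iodoacetamide alkyne for 1 h. Labelled proteins were clicked to sCIP-TMT reagents, pooled, digested, enriched on streptavidin and measured by Orbitrap Eclipse LC-MS/MS with FAIMS, with FragPipe quantification. The per-cysteine log2 competition ratio is mean control-channel reporter intensity over mean compound-channel reporter intensity. Across three replicates with duplicate channels, cysteines quantified in only one replicate were excluded.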

log2 ratio of iodoacetamide-alkyne labeling, inactive:
UniProt P62330_C90 0.0463
RPS27A C121 (UniProt P62979) 0.164
SORD C350 (UniProt Q00796) 0.259
UniProt P62263_C31 -0.0715
UniProt Q02040_C579 0.722
MRPS11 C112 (UniProt P82912) 0.115
UniProt P62987_C115 0.403
KIF23 C791 (UniProt Q02241) 0.847
UniProt P62330_C155 0.452
SATB1 C529 (UniProt Q01826) 0.0361
UniProt Q02040_C17 0.249
UniProt P62306_C66 0.0671
HMGCS1 C268 (UniProt Q01581) 0.467
UniProt P68431_C111 0.142

A portion taken from the entries so far, for reference:
log2 ratio of iodoacetamide-alkyne labeling, inactive:
UniProt P62263_C31 -0.0715
UniProt Q02040_C579 0.722
